The list shows a part of the results.
Key:
Assay in all cases: log2 fold change, soluble protein after heating vs DMSO (PISA); higher = thermal stabilisation; K562 cells, 10 uM, 30 min; active = over 0.2 and 3.5 SD of the protein, either way, in both replicates (recomputed)
[1] = compound: CS(=O)(=O)c1ccc(-c2cnc(N)c(C(=O)Nc3ccccc3)n2)cc1
Outline: (§1)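 K562 cells at 2×10^6 cells/mL were treated for 30 min with 10 μM compound, and aliquots were heated for 3 min over 48°C-58°C before pooling. Extraction used PBS with 0.5% NP-40 at 4°C, and soluble protein was the supernatant after 21,000xg for 90 min, measured by TMTpro 16plex LC-MS/MS with channel sums equalised. Thermal stability values, relative to control samples and from duplicates, are log2 fold changes.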

The chains behind the UniProt entries cited, without tags or fusion partners. Where a name states a change or a piece, a line headed by the entry shows the natural chain unless it says otherwise.
UniProt Q86V85: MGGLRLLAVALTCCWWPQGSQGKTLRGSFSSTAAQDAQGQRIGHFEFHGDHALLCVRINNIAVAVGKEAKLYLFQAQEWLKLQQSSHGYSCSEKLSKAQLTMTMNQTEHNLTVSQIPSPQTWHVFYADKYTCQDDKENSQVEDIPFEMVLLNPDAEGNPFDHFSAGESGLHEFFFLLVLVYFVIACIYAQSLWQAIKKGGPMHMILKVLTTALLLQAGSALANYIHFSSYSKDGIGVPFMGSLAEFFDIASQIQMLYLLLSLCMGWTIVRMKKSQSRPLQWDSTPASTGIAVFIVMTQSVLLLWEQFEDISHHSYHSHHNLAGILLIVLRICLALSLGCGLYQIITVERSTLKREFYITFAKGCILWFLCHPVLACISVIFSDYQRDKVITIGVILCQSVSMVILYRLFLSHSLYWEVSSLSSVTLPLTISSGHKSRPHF
UniProt Q9BVP2: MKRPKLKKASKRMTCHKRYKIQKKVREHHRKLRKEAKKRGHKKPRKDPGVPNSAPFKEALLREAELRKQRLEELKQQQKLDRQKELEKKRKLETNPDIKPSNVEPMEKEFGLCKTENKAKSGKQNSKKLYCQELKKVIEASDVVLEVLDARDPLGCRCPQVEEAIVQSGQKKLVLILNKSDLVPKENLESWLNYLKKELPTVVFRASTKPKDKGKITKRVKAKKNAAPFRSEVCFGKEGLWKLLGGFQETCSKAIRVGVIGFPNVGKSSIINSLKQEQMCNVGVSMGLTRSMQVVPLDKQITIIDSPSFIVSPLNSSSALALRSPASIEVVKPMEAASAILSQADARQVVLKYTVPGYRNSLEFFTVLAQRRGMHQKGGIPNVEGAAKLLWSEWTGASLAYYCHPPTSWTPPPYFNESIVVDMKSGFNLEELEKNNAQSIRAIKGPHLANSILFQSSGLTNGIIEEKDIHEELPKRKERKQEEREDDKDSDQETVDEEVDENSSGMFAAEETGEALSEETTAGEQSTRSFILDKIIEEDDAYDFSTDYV
UniProt Q53GS7: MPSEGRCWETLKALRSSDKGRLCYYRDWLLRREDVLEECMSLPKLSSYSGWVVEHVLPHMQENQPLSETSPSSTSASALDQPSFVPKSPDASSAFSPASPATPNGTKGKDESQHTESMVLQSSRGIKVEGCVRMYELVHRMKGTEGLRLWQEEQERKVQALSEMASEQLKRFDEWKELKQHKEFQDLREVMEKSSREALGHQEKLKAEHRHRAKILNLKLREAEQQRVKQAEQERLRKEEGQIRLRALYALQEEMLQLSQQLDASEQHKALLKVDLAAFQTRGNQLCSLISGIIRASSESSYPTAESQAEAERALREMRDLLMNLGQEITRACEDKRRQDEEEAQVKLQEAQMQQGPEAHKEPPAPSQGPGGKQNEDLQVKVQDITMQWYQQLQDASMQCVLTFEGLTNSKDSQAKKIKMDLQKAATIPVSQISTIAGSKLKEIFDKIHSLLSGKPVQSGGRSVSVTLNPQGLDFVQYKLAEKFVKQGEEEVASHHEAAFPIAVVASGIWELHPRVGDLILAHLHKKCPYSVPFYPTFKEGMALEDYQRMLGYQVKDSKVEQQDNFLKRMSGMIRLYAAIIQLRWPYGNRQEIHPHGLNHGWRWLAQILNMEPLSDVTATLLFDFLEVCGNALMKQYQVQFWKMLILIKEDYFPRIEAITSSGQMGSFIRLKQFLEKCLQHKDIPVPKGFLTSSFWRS
UniProt Q14956: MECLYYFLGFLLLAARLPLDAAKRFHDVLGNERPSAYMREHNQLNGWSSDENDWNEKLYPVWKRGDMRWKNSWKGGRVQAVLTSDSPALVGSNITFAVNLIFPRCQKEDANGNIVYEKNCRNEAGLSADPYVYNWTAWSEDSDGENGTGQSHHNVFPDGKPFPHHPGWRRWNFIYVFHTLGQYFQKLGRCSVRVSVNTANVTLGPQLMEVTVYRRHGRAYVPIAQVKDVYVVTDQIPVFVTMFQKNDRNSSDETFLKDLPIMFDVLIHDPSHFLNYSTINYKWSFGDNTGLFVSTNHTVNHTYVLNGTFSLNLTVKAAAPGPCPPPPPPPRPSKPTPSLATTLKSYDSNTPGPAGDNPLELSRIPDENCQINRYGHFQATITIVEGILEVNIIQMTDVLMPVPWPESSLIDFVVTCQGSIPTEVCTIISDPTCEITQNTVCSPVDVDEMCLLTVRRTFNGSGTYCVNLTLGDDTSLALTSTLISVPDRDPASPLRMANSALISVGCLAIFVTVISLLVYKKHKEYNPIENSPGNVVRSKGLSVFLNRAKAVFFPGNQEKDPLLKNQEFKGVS
UniProt Q92805: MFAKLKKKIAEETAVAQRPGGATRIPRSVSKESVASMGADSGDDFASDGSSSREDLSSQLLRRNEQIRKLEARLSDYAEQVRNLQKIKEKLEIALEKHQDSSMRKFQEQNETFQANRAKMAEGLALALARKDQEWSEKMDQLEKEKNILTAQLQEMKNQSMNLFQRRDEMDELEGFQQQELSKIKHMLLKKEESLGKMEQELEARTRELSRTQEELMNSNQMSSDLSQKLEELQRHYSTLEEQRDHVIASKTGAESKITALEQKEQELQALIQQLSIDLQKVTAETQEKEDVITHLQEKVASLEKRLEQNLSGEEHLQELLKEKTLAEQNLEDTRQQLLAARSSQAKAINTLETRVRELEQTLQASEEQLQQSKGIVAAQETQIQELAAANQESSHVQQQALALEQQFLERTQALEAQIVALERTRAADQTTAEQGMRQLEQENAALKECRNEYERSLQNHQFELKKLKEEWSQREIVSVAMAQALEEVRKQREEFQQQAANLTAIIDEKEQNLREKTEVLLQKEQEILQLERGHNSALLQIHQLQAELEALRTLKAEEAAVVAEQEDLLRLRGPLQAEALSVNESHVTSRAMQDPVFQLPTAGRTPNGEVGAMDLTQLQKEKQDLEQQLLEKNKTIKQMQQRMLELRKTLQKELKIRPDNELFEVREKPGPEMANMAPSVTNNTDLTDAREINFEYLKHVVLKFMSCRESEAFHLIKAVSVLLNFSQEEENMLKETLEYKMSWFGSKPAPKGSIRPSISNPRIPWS
UniProt Q96CP6, whole entry, looked up: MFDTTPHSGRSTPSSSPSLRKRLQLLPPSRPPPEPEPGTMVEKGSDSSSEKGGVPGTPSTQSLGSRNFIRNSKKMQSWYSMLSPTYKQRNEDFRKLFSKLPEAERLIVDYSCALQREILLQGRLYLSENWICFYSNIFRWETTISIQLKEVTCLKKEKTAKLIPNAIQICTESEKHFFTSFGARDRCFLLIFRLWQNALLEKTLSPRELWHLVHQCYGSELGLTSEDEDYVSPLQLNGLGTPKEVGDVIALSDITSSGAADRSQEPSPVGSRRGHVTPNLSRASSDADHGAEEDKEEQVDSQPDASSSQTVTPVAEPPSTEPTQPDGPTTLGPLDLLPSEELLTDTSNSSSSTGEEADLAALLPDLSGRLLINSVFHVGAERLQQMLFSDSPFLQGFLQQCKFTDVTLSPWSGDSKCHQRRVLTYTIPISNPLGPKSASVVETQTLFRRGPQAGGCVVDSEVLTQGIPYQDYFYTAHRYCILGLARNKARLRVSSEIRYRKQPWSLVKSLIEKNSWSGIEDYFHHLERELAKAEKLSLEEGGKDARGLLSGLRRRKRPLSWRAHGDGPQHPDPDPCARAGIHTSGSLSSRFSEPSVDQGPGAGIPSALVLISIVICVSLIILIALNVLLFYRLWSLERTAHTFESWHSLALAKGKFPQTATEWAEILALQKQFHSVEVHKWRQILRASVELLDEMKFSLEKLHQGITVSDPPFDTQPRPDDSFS
UniProt Q9NZD2: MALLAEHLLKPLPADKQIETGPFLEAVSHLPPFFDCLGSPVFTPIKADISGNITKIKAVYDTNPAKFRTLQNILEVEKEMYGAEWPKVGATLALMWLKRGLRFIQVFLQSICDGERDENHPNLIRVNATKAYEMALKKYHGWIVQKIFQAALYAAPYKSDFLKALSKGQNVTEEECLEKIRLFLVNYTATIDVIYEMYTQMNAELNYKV
UniProt Q9NU53: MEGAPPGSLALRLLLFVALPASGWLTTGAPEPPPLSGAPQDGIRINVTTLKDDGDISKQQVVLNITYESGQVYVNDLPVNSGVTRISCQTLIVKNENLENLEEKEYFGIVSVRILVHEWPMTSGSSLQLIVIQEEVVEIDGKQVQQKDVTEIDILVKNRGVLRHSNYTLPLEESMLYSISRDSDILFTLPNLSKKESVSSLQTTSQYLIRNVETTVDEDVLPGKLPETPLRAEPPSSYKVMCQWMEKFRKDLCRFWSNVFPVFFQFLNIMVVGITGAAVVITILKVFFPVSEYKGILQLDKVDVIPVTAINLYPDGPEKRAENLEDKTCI
UniProt Q6ZS86: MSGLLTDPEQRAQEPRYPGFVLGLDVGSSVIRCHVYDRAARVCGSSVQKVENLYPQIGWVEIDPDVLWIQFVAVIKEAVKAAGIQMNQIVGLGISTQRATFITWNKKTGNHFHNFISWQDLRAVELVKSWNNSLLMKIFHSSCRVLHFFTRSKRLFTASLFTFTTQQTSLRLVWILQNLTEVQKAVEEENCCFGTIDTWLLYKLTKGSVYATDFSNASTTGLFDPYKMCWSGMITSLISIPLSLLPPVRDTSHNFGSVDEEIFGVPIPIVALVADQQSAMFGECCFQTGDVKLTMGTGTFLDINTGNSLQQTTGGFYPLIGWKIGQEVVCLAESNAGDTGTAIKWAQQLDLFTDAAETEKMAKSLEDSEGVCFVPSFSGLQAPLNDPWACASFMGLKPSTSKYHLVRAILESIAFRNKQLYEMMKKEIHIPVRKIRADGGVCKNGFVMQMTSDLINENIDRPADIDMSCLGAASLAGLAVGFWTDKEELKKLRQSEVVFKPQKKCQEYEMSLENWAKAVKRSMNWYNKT
UniProt O60443: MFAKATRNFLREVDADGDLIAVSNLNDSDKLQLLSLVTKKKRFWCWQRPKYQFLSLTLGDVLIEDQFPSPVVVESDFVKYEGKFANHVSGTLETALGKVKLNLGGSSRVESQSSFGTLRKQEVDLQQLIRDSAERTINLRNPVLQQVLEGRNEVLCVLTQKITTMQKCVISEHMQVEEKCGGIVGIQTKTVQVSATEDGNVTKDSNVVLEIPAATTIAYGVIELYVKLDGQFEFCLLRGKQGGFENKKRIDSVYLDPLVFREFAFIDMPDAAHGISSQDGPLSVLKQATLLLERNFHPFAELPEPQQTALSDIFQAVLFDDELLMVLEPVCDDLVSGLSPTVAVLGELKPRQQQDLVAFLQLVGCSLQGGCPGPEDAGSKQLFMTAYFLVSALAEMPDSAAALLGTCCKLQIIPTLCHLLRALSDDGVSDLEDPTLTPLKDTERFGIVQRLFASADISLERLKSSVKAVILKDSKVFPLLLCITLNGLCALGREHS
UniProt Q9BRR8: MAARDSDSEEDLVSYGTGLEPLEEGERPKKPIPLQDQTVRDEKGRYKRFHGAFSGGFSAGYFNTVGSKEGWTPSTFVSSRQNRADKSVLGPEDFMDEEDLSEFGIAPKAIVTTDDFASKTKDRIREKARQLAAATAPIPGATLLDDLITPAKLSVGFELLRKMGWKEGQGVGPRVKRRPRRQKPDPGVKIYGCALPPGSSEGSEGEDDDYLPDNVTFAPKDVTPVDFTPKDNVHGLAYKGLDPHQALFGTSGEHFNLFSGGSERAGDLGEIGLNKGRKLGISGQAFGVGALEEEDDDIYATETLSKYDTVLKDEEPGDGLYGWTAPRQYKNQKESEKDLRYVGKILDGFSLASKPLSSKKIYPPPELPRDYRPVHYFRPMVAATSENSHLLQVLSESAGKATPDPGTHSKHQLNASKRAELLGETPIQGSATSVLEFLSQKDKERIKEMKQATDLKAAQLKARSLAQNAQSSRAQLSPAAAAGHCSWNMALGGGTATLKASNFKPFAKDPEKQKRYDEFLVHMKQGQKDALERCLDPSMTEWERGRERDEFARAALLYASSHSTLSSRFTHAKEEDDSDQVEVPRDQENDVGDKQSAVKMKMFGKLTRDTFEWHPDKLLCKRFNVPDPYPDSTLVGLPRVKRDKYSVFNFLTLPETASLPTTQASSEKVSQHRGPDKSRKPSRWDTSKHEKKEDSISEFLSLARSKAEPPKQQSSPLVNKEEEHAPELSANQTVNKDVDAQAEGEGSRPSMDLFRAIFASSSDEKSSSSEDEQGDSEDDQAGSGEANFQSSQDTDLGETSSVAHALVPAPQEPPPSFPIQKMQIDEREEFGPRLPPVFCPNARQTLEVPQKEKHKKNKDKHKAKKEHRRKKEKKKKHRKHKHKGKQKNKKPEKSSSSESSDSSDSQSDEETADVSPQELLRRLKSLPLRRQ
UniProt P21695: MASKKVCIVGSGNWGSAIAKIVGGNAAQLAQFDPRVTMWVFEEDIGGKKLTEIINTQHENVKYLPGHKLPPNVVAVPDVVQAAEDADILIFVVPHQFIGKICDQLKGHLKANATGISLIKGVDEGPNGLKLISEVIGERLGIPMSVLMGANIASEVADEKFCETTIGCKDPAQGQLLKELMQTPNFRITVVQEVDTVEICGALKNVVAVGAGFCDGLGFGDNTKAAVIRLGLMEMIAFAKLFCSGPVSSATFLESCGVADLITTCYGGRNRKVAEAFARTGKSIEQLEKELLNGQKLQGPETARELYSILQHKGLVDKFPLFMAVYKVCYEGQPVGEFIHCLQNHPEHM

[2] = compound: C[C@@H]1COCCN1C2=NC(=NC(=C2)C3(CC3)S(=O)(=O)C)C4=C5C=CNC5=CC=C4
Outline: as §1

[3] = compound: C[C@H](C1=CC=C(C=C1)C(=O)NC2=C3C=CNC3=NC=C2)N
Outline: as §1

[4] = compound: C[C@H](Nc1ncnc2nc[nH]c12)c1cc2cccc(Cl)c2c(=O)n1-c1ccccc1 [duvelisib]
Outline: as §1

[5] = compound: Cc1cc(Nc2cc(CN3CCOCC3)c3nc(C)c(Cc4ccc(Cl)cc4F)n3n2)n[nH]1 [gandotinib]
Outline: as §1

[6] = compound: Cc1cc(Nc2cc(N3CCN(C)CC3)nc(Sc3ccc(NC(=O)C4CC4)cc3)n2)n[nH]1 [tozasertib]
Outline: as §1

[7] = compound: Cc1cc(SCc2sc(-c3ccc(C(F)(F)F)cc3)nc2C)ccc1OCC(=O)O
Outline: as §1

[8] = compound: Cc1ccc(NC(=O)c2ccc(CN3CC[C@H](N(C)C)C3)c(C(F)(F)F)c2)cc1Nc1nccc(-c2cncnc2)n1 [bafetinib]
Outline: as §1

[9] = compound: Cc1cccc(CC(=O)N2CCc3c2ccc(-c2cn(C)c4ncnc(N)c24)c3F)n1
Outline: as §1

[10] = compound: Cc1nc(Nc2ncc(C(=O)Nc3c(C)cccc3Cl)s2)cc(N2CCN(CCO)CC2)n1 [dasatinib]
Outline: as §1

[11] = compound: Cn1cc(-c2ccc3c(c2)CCN3C(=O)Cc2cccc(C(F)(F)F)c2)c2c(N)ncnc21
Outline: as §1

[12] = compound: Cn1cncc1[C@@](N)(c1ccc(Cl)cc1)c1ccc2c(c1)c(-c1cccc(Cl)c1)cc(=O)n2C [tipifarnib]
Outline: as §1

[13] = compound: FC(F)(F)c1ccc(/C=C/c2nc(COc3ccc(CCCCn4ccnn4)cc3)co2)cc1 [mubritinib]
Outline: as §1

[14] = compound: Cc1cn(-c2cc(NC(=O)c3ccc(C)c(Nc4nccc(-c5cccnc5)n4)c3)cc(C(F)(F)F)c2)cn1 [nilotinib]
Outline: as §1

[15] = compound: Cc1nc(Nc2n[nH]c3c2CN(C(=O)N[C@H](CN(C)C)c2ccccc2)C3(C)C)c2sccc2n1
Outline: as §1

[16] = compound: Cc1ncc(-c2ccnc(Nc3ccc(S(C)(=O)=O)cc3)n2)n1C(C)C
Outline: as §1

[17] = compound: Cc1ccc(C(=O)N(CCCN)[C@@H](c2nc3cc(Cl)ccc3c(=O)n2Cc2ccccc2)C(C)C)cc1 [ispinesib]
Outline: as §1

[18] = compound: Cn1cc(-c2ccc3nnc(C(F)(F)c4ccc5ncccc5c4)n3n2)cn1
Outline: as §1

[19] = compound: C[C@@H](Oc1cc(-c2cnn(C3CCNCC3)c2)cnc1N)c1c(Cl)ccc(F)c1Cl [crizotinib]
Outline: as §1

[20] = compound: Cc1ccc(-n2nc(C(C)(C)C)cc2NC(=O)Nc2ccc(OCCN3CCOCC3)c3ccccc23)cc1 [doramapimod]
Outline: as §1

Measured: log2 fold change

GPR180 (UniProt Q86V85)
inactive: [1] 0.118 | [2] 0.296 | [3] 0.116 | [4] -0.016 | [5] -0.131 | [6] 0.028 | [7] 0.036 | [8] 0.561 | [9] -0.104 | [10] -0.237 | [11] 0.133 | [12] -0.048 | [13] 0.207

GNL3 (UniProt Q9BVP2)
inactive: [1] 0.126 | [2] -0.009 | [3] 0.065 | [5] 0.098 | [7] -0.053 | [8] -0.038 | [9] -0.078 | [14] -0.007 | [15] 0.011 | [10] -0.031 | [16] 0.056 | [11] 0.069 | [13] 0.134

GLE1 (UniProt Q53GS7)
inactive: [3] 0.573 | [4] -0.172 | [7] 0.071 | [10] 0.025 | [11] -0.338

GPNMB (UniProt Q14956)
inactive: [2] -0.151

GPT2 (UniProt Q8TD30)
inactive: [3] -0.005 | [4] 0.141 | [5] -0.089 | [6] -0.204 | [7] 0.03 | [17] -0.175 | [9] 0 | [10] -0.268 | [11] 0.107 | [12] -0.175 | [13] 0.013

GNMT (UniProt Q14749)
inactive: [1] -0.053 | [3] 0.098 | [4] 0.012 | [5] 0.14 | [6] -0.078 | [7] -0.093 | [17] 0.154 | [8] 0.106 | [9] 0.209 | [14] 0.029 | [15] 0.043 | [10] -0.196 | [16] 0.082 | [11] 0.081 | [18] 0.114 | [12] 0.012 | [13] 0.101

GORAB (UniProt Q5T7V8)
inactive: [1] -0.109 | [4] 0.206 | [6] -0.069 | [7] -0.007 | [17] 0 | [8] 0.127 | [14] -0.313 | [15] -0.097 | [10] 0.168 | [16] 0.005 | [18] 0.061 | [12] -0.069

GJA1 (UniProt P17302)
inactive: [5] 0.328 | [8] -0.136 | [9] 0.234

GPCPD1 (UniProt Q9NPB8)
inactive: [1] 0.187 | [2] -0.381 | [3] 0.109 | [4] 0.013 | [5] -0.012 | [7] 0.205 | [17] 0.026 | [9] 0.272 | [10] -0.222 | [11] -0.011 | [18] -0.036 | [12] -0.021 | [13] 0.143

GLS2 (UniProt Q9UI32)
inactive: [3] -0.236 | [11] 0.067

GPAA1 (UniProt E9PLG8)
inactive: [19] 0.02 | [3] 0.162 | [4] 0.035 | [5] -0.236 | [6] -0.057 | [7] -0.023 | [20] -0.031 | [8] -0.001 | [9] -0.049 | [14] -0.159 | [15] -0.167 | [10] 0.039 | [16] 0.033 | [11] -0.093 | [13] 0.082

GNL2 (UniProt Q13823)
inactive: [2] -0.186 | [5] 0.089 | [6] -0.171 | [17] -0.041 | [8] 0.275 | [9] 0.079 | [18] -0.036 | [13] 0.03

GNPTG (UniProt Q9UJJ9)
inactive: [19] -0.01 | [2] 0.173 | [3] 0.133 | [4] 0.022 | [5] -0.121 | [6] 0.022 | [7] -0.037 | [20] 0.003 | [17] 0.03 | [8] -0.067 | [9] -0.037 | [14] 0.041 | [15] -0.003 | [10] 0.062 | [16] -0.013 | [11] -0.129 | [18] 0.064 | [13] -0.008

Two records picked at random from the list so far:
GNL3 (UniProt Q9BVP2)
inactive: [1] 0.126 | [2] -0.009 | [3] 0.065 | [5] 0.098 | [7] -0.053 | [8] -0.038 | [9] -0.078 | [14] -0.007 | [15] 0.011 | [10] -0.031 | [16] 0.056 | [11] 0.069 | [13] 0.134

GLE1 (UniProt Q53GS7)
inactive: [3] 0.573 | [4] -0.172 | [7] 0.071 | [10] 0.025 | [11] -0.338

(further entries)

GLT8D1 (UniProt Q68CQ7)
inactive: [4] 0.118 | [5] 0.154 | [7] 0.233 | [9] 0.247 | [14] 0.14 | [15] -0.005 | [10] -0.077 | [16] -0.014

GOLGA1 (UniProt Q92805)
inactive: [4] 0.171 | [5] 0.058 | [7] -0.007 | [17] -0.244 | [9] -0.076 | [10] -0.032 | [18] 0.091 | [12] -0.01

GPX3 (UniProt P22352)
inactive: [2] 0.098 | [3] 0.077 | [4] 0.103 | [6] -0.246 | [7] 0.119 | [17] 0.063 | [8] -0.008 | [10] 0.039 | [11] 0.182 | [18] 0.038 | [12] 0.148

GORASP1 (UniProt Q9BQQ3)
inactive: [2] -0.139 | [3] 0.033 | [4] -0.13 | [7] 0.173 | [10] -0.06 | [11] 0.052 | [12] 0.006

GRAMD1A (UniProt Q96CP6)
inactive: [2] 0.091 | [8] -0.103

GLTP (UniProt Q9NZD2)
inactive: [1] 0.219 | [3] -0.013 | [5] 0.095 | [6] 0.05 | [17] 0.209 | [8] 0.058 | [9] 0.029 | [14] 0.163 | [15] -0.029 | [16] 0.018 | [11] 0.163 | [18] 0.008 | [12] 0.009 | [13] 0.033

GINM1 (UniProt Q9NU53)
inactive: [1] -0.155 | [2] -0.127 | [5] 0.016 | [8] -0.163 | [9] 0.061 | [14] -0.158 | [15] 0.094 | [16] 0.043 | [12] -0.025 | [13] -0.043

GPATCH4 isoform 3 (UniProt Q5T3I0)
inactive: [19] 0.057 | [2] -0.076 | [3] 0.507 | [4] -0.071 | [5] 0.251 | [6] 0.156 | [7] -0.107 | [20] 0.127 | [17] -0.159 | [8] -0.247 | [9] -0.104 | [10] 0.073 | [11] -0.461 | [18] 0.153 | [12] 0.168

GNL3L (UniProt Q9NVN8)
inactive: [5] -0.078 | [9] -0.009

GK5 (UniProt Q6ZS86)
inactive: [19] 0.022 | [2] -0.011 | [3] -0.053 | [4] 0.146 | [5] 0.156 | [6] -0.13 | [7] 0.142 | [20] -0.064 | [17] -0.177 | [8] 0.201 | [9] -0.005 | [10] 0.065 | [11] 0.153 | [18] 0.021 | [12] -0.186

GSDME (UniProt O60443)
inactive: [2] 0.178 | [4] 0.046 | [7] 0.005 | [10] 0.049

GPATCH1 (UniProt Q9BRR8)
inactive: [1] 0.099 | [2] -0.064 | [3] 0.017 | [4] 0.095 | [6] -0.178 | [7] 0.039 | [10] 0.029 | [11] -0.118 | [12] 0.069

GPD1 (UniProt P21695)
inactive: [1] -0.036 | [2] 0.034 | [3] -0.482 | [5] 0.094 | [7] -0.034 | [17] 0.046 | [8] -0.171 | [9] -0.123 | [14] -0.104 | [15] 0.054 | [10] 0.061 | [16] -0.017 | [11] 0.238 | [18] 0.163 | [12] 0.057 | [13] 0.045

GPATCH2L (UniProt Q9NWQ4)
inactive: [6] 0.249

Reference: the supplement of paper PMC10849652
